# The list shows a part of the results.
# Compound: Cc1cc(ccc1-c1ccccc1)C(=O)N1CCCN(CC1)C(=O)CCl [compound 10]
# Test: probe-labelled cysteine peptide fold change vs DMSO (competition) (log2 fold change); higher = less target engagement (more negative = stronger competition)
# Conditions: THP-1, incubation time: 4 h
# 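Note: competitive profiling in live THP-1 cells: cysteine peptides tagged with an iodoacetamide desthiobiotin (IA-DTB) probe, intensity after compound treatment relative to DMSO-treated cells.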
Target,probe-labelled cysteine peptide fold change (10 µM),probe-labelled cysteine peptide fold change (50 µM)
PTRHD1_Q6GMV3_52_DLSQAPFSWPAGALVAQACHAATAALHTHR (UniProt Q6GMV3),0.226,0.0043
PTPN7_P35236_291_LVAEVEESPETAAHPGPIVVHCSAGIGR (UniProt P35236),0.109,-0.295
PTGES3_Q15185_76_SILCCLR (UniProt Q15185),-0.111,-0.338
PTCD3_Q96EY7_260_NEHSYCTMIR (UniProt Q96EY7),-0.0913,0.011
PSMA4_P25789_74_LNEDMACSVAGITSDANVLTNELR (UniProt P25789),-0.101,0.275
PSMD3_O43242_483_ISFCLDIHNMSVK (UniProt O43242),-0.124,-0.0391
PSMA3_P25788_42_CKDGVVFGVEK (UniProt P25788),-0.124,-0.702
PSMD4_P55036_9_VLESTMVCVDNSEYMR (UniProt P55036),-0.0498,-0.0632
PTK2B_Q14289_180_VSEGMALQLGCLELR (UniProt Q14289),-0.0295,0.0688
PTCD1_O75127_695_EADDGCALGGR (UniProt O75127),-0.438,-0.792
PTPN1_P18031_344_EETQEDKDCPIKEEK (UniProt P18031),-0.593,-1.57
PSME3_P61289_92_LDECEEAFQGTK (UniProt P61289),-0.166,-0.324
PTPRC_P08575_853_VNAFSNFFSGPIVVHCSAGVGR (UniProt P08575),0.0738,0.109
PSMB1_P20618_224_ICIVTK (UniProt P20618),0.167,-0.0433
PUM3_Q15397_371_VAMHCLWHGTPK (UniProt Q15397),0.197,0.0431
PTDSS1_P48651_347_QYYAYLTDTQCKR (UniProt P48651),0.000125,-0.0263
PTPN1_P18031_231_SGTFCLADTCLLLMDK (UniProt P18031),0.0304,0.0773
PTPN11_Q06124_490_GVDCDIDVPK (UniProt Q06124),-0.00676,0.0192

# Random excerpt: two records from the list.
Target,probe-labelled cysteine peptide fold change (10 µM),probe-labelled cysteine peptide fold change (50 µM)
PTPN7_P35236_291_LVAEVEESPETAAHPGPIVVHCSAGIGR (UniProt P35236),0.109,-0.295
PTCD1_O75127_695_EADDGCALGGR (UniProt O75127),-0.438,-0.792

# (listing goes on)

Target,probe-labelled cysteine peptide fold change (10 µM),probe-labelled cysteine peptide fold change (50 µM)
PSME3_P61289_92_RRLDECEEAFQGTK (UniProt P61289),-0.145,-0.293
PTPRE_P23469_630_QQQQTGNHPITVHCSAGAGR (UniProt P23469),0.208,0.226
PSMD2_Q13200_139_FAADIISVLAMTMSGERECLK (UniProt Q13200),0.00792,-0.301
PSMA6_P60900_78_ITENIGCVMTGMTADSR (UniProt P60900),0.214,-0.195
PSMD13_Q9UNM6_182_FLGCVDIK (UniProt Q9UNM6),-0.102,0.096
PSPH_P78330_187_IIMIGDGATDMEACPPADAFIGFGGNVIR (UniProt P78330),0.0605,0.373
PTPRG_P23470_858_CTADMNITAEHSNHPENK (UniProt P23470),-0.316,-0.206
PTER_Q96BW5_289_LLVEEGCEDR (UniProt Q96BW5),-0.0539,0.0311
PTGFRN_Q9P2B2_571_PFFAAGNTFEMTCK (UniProt Q9P2B2),0.0192,-0.0142
PSTPIP2_Q9H939_221_ACEAFEAQECER (UniProt Q9H939),0.0423,0.0945
PTPRF_P10586_107_VQRDEAIYECTATNSLGEINTSAK (UniProt P10586),-0.404,-0.916
PSMC3_P17980_400_AVCVEAGMIALR (UniProt P17980),-0.0751,0.131
PTPRC_P08575_367_CDSEILYNNHK (UniProt P08575),-0.226,0.0169
PTPMT1_Q8WUK0_127_YQSLGQCVYVHCK (UniProt Q8WUK0),0.0664,0.117
PTK2B_Q14289_395_RSHLSESCSIESDIYAEIPDETLR (UniProt Q14289),0.161,-0.122
PSMA4_P25789_163_ATCIGNNSAAAVSMLK (UniProt P25789),0.0539,-0.0837
PTPRF_P10586_615_VMCVSMGSTTVR (UniProt P10586),0.181,-0.763
PTPN11_Q06124_463_QESIMDAGPVVVHCSAGIGR (UniProt Q06124),0.47,0.263

# From the supplement of paper PMC12067093, “Discovery and optimisation of a covalent ligand for TRIM25 and its application to targeted protein ubiquitination” (Chemical Science, 2025)
